Literature values in US11168079B2, “Alkene compounds as farnesoid x receptor modulators” (BRISTOL-MYERS SQUIBB COMPANY, priority 2017, dated 2021).
At least one structure is not confirmed: it was looked up by name or label, or the drawing left a doubt.

Legend:
[1] = tested on: T2DM patients with NAFLD; conditions: 6-week clinical trial; cited from earlier work
[2] = tested on: patients with NASH; conditions: 72-week clinical trial, histological analyses of liver biopsies; cited from earlier work

CC[C@H]1[C@@H](O)[C@@H]2[C@H](CC[C@]3(C)[C@@H]([C@H](C)CCC(=O)O)CC[C@@H]23)[C@@]2(C)CC[C@@H](O)C[C@@H]12 [OCA, obeticholic acid]
body weight [1]: reduced
insulin sensitivity [1]: statistically significantly improved
fibrosis [2]: statistically significantly improved
hepatic steatosis [2]: statistically significantly improved
hepatocyte ballooning [2]: statistically significantly improved
lobular inflammation [2]: statistically significantly improved
